Measured values: PMC12658120
No constants are given. Whether binding was seen depends on the method and setting. In cells and extracts the contact can be indirect. Some entries that bind do so weakly or less than the wild type. Sequences can lack the tags named with a protein.

Tests used:
[1] = target: T1, Flag-MCT1 (not stated (human or mouse cDNA cloned)) (UniProt P53985); assay: co-IP; HEK293T cells transfected with HA-RAB32 and Flag-MCT1/4, with or without Salmonella infection; whole-cell extracts incubated overnight with anti-Flag agarose, 5-6 washes with low-salt lysis buffer, blot with anti-HA and anti-Flag
T1 sequence: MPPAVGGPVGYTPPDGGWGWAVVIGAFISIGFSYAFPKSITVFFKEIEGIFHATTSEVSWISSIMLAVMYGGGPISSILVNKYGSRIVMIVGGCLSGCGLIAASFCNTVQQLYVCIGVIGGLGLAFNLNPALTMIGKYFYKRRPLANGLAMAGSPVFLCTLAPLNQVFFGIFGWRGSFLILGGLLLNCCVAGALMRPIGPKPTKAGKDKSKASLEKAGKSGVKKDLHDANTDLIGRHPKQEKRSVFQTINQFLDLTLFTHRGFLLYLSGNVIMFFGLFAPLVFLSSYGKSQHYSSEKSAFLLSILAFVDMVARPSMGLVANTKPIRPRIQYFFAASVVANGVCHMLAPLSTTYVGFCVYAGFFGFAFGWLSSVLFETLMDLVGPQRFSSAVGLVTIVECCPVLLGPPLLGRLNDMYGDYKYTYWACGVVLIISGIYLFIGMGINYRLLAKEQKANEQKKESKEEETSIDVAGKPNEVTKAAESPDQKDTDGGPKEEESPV

[2] = target: T2, Flag-MCT4 (not stated (human or mouse cDNA cloned)) (UniProt O15427); assay: as above
T2 sequence: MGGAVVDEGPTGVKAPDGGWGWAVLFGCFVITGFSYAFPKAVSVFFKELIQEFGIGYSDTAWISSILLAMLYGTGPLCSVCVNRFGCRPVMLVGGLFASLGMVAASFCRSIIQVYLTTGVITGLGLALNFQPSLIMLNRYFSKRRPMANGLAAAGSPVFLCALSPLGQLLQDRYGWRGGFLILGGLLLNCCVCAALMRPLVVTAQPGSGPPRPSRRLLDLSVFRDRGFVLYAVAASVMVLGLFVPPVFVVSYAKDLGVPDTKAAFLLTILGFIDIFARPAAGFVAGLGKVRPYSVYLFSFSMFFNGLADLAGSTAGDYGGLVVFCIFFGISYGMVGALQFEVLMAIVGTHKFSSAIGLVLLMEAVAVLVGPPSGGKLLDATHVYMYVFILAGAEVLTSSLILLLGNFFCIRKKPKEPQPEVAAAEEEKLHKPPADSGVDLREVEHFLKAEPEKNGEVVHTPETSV

binding [1]: binds | binding [2]: binds
B1: HA-RAB32 (protein, UniProt Q13637 1-225)
chain: MAGGGAGDPGLGAAAAPAPETREHLFKVLVIGELGVGKTSIIKRYVHQLFSQHYRATIGVDFALKVLNWDSRTLVRLQLWDIAGQERFGNMTRVYYKEAVGAFVVFDISRSSTFEAVLKWKSDLDSKVHLPNGSPIPAVLLANKCDQNKDSSQSPSQVDQFCKEHGFAGWFETSAKDNINIEEAARFLVEKILVNHQSFPNEENDVDKIKLDQETLRAENKSQCC
